# Laboratory results reported in PMC8076227.
# Sequences of proteins named here, by UniProt entry; tags and fusion partners are left off. A change or cut given only in a name is not applied to a line headed by its entry.
# UniProt Q06710: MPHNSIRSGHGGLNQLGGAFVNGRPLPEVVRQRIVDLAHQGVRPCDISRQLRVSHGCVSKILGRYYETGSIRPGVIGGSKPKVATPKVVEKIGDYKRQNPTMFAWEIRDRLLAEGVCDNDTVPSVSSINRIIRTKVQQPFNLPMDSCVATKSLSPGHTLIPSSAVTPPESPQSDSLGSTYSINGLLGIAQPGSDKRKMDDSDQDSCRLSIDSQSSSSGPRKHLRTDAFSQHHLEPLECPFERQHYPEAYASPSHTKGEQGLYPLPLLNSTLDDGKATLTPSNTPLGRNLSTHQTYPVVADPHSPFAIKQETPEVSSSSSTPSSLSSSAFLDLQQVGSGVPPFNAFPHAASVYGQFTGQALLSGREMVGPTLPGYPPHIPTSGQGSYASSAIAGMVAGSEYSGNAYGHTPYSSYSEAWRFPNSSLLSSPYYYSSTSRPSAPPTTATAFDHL
# UniProt Q03112: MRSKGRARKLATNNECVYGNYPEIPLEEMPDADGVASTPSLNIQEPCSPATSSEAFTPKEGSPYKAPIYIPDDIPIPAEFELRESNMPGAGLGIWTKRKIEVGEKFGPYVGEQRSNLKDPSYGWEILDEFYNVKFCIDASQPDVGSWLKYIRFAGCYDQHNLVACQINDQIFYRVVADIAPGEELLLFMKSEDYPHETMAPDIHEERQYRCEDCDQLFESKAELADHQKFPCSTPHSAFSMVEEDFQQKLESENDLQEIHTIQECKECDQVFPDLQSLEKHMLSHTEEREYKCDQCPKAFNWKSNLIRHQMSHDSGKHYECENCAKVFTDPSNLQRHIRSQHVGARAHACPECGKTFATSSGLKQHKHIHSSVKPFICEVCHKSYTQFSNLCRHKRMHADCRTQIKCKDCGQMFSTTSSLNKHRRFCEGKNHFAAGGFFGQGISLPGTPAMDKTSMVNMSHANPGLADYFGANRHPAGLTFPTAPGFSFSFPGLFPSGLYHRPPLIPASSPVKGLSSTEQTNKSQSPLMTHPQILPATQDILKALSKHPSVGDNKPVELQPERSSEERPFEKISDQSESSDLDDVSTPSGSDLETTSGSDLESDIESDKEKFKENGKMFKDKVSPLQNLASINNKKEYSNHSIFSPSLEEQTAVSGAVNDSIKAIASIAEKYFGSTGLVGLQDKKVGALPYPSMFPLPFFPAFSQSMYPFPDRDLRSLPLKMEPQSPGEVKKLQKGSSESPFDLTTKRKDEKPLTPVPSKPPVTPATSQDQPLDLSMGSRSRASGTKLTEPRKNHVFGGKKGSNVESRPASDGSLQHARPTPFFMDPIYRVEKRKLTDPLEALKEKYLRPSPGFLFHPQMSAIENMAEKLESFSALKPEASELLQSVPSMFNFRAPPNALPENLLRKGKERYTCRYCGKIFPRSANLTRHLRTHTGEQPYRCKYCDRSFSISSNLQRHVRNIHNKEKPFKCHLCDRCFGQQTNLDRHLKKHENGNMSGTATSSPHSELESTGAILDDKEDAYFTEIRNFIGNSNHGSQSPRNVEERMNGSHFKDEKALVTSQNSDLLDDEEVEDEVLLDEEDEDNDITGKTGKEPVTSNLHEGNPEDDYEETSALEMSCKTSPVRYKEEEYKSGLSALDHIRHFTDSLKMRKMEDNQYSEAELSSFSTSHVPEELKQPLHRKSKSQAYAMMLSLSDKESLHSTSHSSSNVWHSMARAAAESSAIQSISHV
# Results are given in words; binding and its absence hold for the method and conditions named. In cells and extracts the contact can be indirect. A result given as binding can be weak or reduced; the word gives no strength.
# Molecular target: PAX8-LgBit with point mutations abolishing DNA-binding capacity (UniProt Q06710)
# Test: split reporter; IVTT-NanoBit: PAX8-LgBit and mutants made in a mammalian in vitro transcription-translation system, mixed with PRDM3-SmBit (Fig. 2B)
substance,measurement,value
PRDM3-SmBit (from UniProt Q03112 1-1230),binding,binds
